{"source": "PubChem BioAssay AID540276", "about": "(National Center for Advancing Translational Sciences (NCATS), 2011)", "note": "“And” between values parts separate entries of the source, which are not always exact repeats. Identical values can stand only once. Among all 300,000 compounds or so, about 5,400 (1.8%) were called active. Inconclusive results, whose numbers are uncertain, are shown with a selection of clear calls. Calls come from the whole dose curve; tested in HEK293 cells. A potency beside an inconclusive call is a rough fit, not a confirmed value. Potency is the fitted concentration of half-maximal effect."}
{"test": "qHTS for inhibitors of binding or entry into cells for Marburg Virus", "settings": "Marburg virus pseudotyped entry inhibition, cell reporter; series mostly up to 37.8 µM"}
{"smiles": "Cc1cc(C)n(-c2nc(NCCCO)c3c4c(sc3n2)CCCC4)n1", "Potency": "inconclusive: 35.5 µM [inhibitor, single point]"}
{"smiles": "CC(C)OCCCNC(=O)c1ccc(Br)cc1", "Potency": "inconclusive: 29.1 µM [activator, single point]"}
{"smiles": "O=C(NCC(c1ccco1)N1CCc2ccccc2C1)C(=O)Nc1ccc(F)cc1F", "note": "(configuration not stated)", "Potency": "inconclusive: 10 µM [inhibitor, partial curve, poor fit]"}
{"smiles": "O=C(O)c1ccccc1NC(c1ccccc1)c1ccc2cccnc2c1O", "note": "(configuration not stated)", "Potency": "inconclusive: 35.5 µM [inhibitor, single point]"}
{"smiles": "Cc1ccc(C)c(NC(=O)Cn2cc(C(=O)C3CCCCC3)c3ccccc32)c1", "Potency": "inconclusive: 17.8 µM [inhibitor, partial curve, poor fit]"}
{"smiles": "COc1cc(C)c(CNc2ccc(OC)c(OC)c2)cc1C", "Potency": "inactive"}
{"smiles": "COc1cccc(OCCCn2cc(/C=C3/C(=N)N4C=C(C)SC4=NC3=O)c3ccccc32)c1", "Potency": "inconclusive: 35.5 µM [inhibitor, single point]"}
{"smiles": "COc1ccc(-c2ncc3ccccn23)cc1", "Potency": "inactive"}
{"smiles": "C=CCOc1ccc(/C=N/NC(C)=O)cc1OCC", "Potency": "inactive"}
{"smiles": "CN(C)C(CNC(=O)c1coc2ccccc2c1=O)c1ccccc1", "note": "(configuration not stated)", "Potency": "inconclusive: 7.08 µM [inhibitor, full curve, poor fit]"}
{"smiles": "COc1cc(N/C(=N/S(=O)(=O)c2ccccc2)c2ccccc2)ncn1", "Potency": "inconclusive: 16.4 µM [activator, single point]"}
{"smiles": "N#Cc1c(N2CCOCC2)nsc1-c1ccc(C(F)(F)F)cc1", "Potency": "inconclusive: 7.08 µM [activator, partial curve, poor fit]"}
{"smiles": "COc1ccc(CNc2ncnc3cc(OC)c(OC)cc23)cc1", "Potency": "inconclusive: 3.98 µM [activator, full curve, poor fit]"}
{"smiles": "S=C(Nc1ccc(Cl)cc1)NC1CCCCC1", "Potency": "inactive"}
{"smiles": "CCC(C)C(=O)NCCc1ccc(S(N)(=O)=O)cc1", "note": "(configuration not stated)", "Potency": "inconclusive: 5.8 µM [activator, full curve]"}
{"smiles": "O=C(c1cnccn1)N1CCc2ccccc21", "Potency": "inactive"}
{"smiles": "COc1ccccc1CNc1ccc(-c2nc(C)no2)cc1[N+](=O)[O-]", "Potency": "inconclusive: 10 µM [inhibitor, partial curve, poor fit]"}
{"smiles": "C[C@]12CC[C@@H]3c4ccc(O)cc4CC[C@H]3[C@@H]1CCC2=O", "Potency": "inconclusive: 11.6 µM [activator, partial curve, poor fit]"}
{"smiles": "CC(=O)Nc1nonc1-c1nnc(SCC(=O)Nc2cc(C)cc(C)c2)n1C", "Potency": "inconclusive: 10 µM [activator, partial curve, poor fit]"}
{"smiles": "Cc1nn(Cc2c(Cl)cccc2Cl)c(C)c1C(=O)NCc1ccc(C)n1C", "Potency": "inconclusive: 0.112 µM [inhibitor, full curve, poor fit]"}
{"smiles": "O=C(c1c(F)cccc1F)N1CCN(c2ccccc2F)CC1", "Potency": "inconclusive: 20 µM [activator, single point]"}
{"smiles": "C=CCc1cccc(OC)c1OCCOCCn1ccnc1", "Potency": "inactive"}
{"smiles": "COC(=O)c1ccc(COc2ccccc2/C=C(\\C#N)C(=O)Nc2ccc(C)cc2)cc1", "Potency": "inconclusive: 0.731 µM [activator, single point]"}
{"smiles": "C#CCCCO/N=C1\\C[C@@H](O)[C@@H](O)[C@@H]2[C@@H]3C(=O)N(Cc4ccc5c(c4)OCO5)C(=O)[C@@H]3CC[C@H]12", "Potency": "inconclusive: 2.99 µM [inhibitor, single point]"}
{"smiles": "O=C(NNC(=S)NC(=O)c1ccc(F)cc1)c1ccncc1", "Potency": "inactive"}
{"smiles": "Cc1ccc(/C(N)=N/OC(=O)CCC2CCCCC2)cc1", "Potency": "inconclusive: 29.1 µM [activator, single point]"}
{"smiles": "CCOC(=O)c1cc([N+](=O)[O-])sc1NC(=O)c1ccc(S(=O)(=O)N2CC3(C)CC2CC(C)(C)C3)cc1", "note": "(configuration not stated)", "Potency": "inconclusive: 1.41 µM [inhibitor, full curve, poor fit]"}
{"smiles": "COc1ccc(OC)c(C(=O)Nc2c(O)ccc3ccccc23)c1", "Potency": "inactive"}
{"smiles": "COC(=O)c1ccc(Nc2nnc(-c3ccc(C)c(S(=O)(=O)NCC4CCCO4)c3)c3ccccc23)cc1", "note": "(configuration not stated)", "Potency": "inconclusive: 14.1 µM [inhibitor, partial curve, poor fit]"}
{"smiles": "C/C(=N\\NC(=O)c1ccc(N(C)C)cc1)c1ccc(C)cc1C", "Potency": "inconclusive: 1.26 µM [activator, single point]"}
{"smiles": "COc1cc(OC)c(NC(=O)CCCn2nc(C)c3sc4ccccc4c3c2=O)cc1Cl", "Potency": "active: 3.16 µM"}
{"smiles": "CSc1nc(C(=O)N2CCc3c([nH]c4ccccc34)C2c2ccccn2)cs1", "note": "(configuration not stated)", "Potency": "inconclusive: 1.78 µM [inhibitor, partial curve, poor fit]"}
{"smiles": "O=S(=O)(c1ccccc1)N(Cc1ccccc1)c1ccccn1", "Potency": "inconclusive: 0.58 µM [activator, single point]"}
{"smiles": "Cc1ccc(S(=O)(=O)N2CCCCC2)cc1C(=O)NCCc1ccccc1", "Potency": "inconclusive: 0.794 µM [inhibitor, single point]"}
{"smiles": "ClCC1=Nc2ccccc2Cc2ccccc21", "Potency": "inconclusive: 0.562 µM [inhibitor, full curve, poor fit]"}
{"smiles": "O=C(Nc1ccccc1)c1ccc(NC(=O)c2cccs2)cc1", "Potency": "inactive"}
{"smiles": "Cc1cccc(C)c1NC(=O)C(=O)NCCCN1CCOCC1", "Potency": "inactive"}
{"smiles": "O=C(NCCCc1nc2ccccc2n1Cc1cccc(Cl)c1)c1ccco1", "Potency": "inconclusive: 7.94 µM [inhibitor, partial curve, poor fit]"}
{"smiles": "CC(C)C(=O)N1CCN(c2ccccc2NC(=O)c2ccco2)CC1", "Potency": "inactive"}
{"smiles": "CC(C)c1onc(C(=O)NCc2ccccc2)c1[N+](=O)[O-]", "Potency": "inconclusive: 5.01 µM [activator, single point]"}
{"smiles": "Cc1ccsc1/C=N\\NC(=O)c1n[nH]c2c1CCC2", "Potency": "active: 2.82 µM"}
{"smiles": "O=C(O)c1nc(-c2ccccc2)n(-c2ccccc2)n1", "Potency": "inconclusive: 1.41 µM [activator, partial curve, poor fit]"}
{"smiles": "Cc1ccccc1NN=Nc1nc2c([nH]1)c(=O)n(C)c(=O)n2C", "Potency": "inconclusive: 6.31 µM [inhibitor, single point]"}
{"smiles": "S=C(Nc1ccc(Cl)c(Cl)c1)NC1CCCCC1", "Potency": "inconclusive: 29.1 µM [inhibitor, single point]"}
{"smiles": "CCn1c(SCC(=O)c2cc(C)n(C)c2C)nnc1-c1ccccc1", "Potency": "inconclusive: 0.316 µM [activator, partial curve, poor fit]"}
{"smiles": "Cc1ccccc1NS(=O)(=O)c1ccc(OCC(=O)N2CCCCC2)cc1", "Potency": "inconclusive: 13 µM [inhibitor, partial curve, poor fit]"}
{"smiles": "COc1ccc(CNC(=O)N2CCN(c3cccc(Cl)c3)CC2)cc1OC", "Potency": "inactive"}
{"smiles": "COc1cccc(NC(=O)c2ccc(S(=O)(=O)N3CCCC3)cc2)c1", "Potency": "inconclusive: 15.8 µM [inhibitor, single point]"}
{"smiles": "COc1cc(C(C(=O)NCc2ccccc2)N(C(=O)c2snc(C(N)=O)c2N)C2CCCC2)cc(OC)c1OC", "note": "(configuration not stated)", "Potency": "inconclusive: 20 µM [inhibitor, single point]"}
{"smiles": "O=C(OCCN1CCCC1)C1(c2ccccc2)CCCC1", "Potency": "inactive and inconclusive: 17.8 µM [inhibitor, single point]"}
{"smiles": "CCN1C(=O)[C@H]2[C@H]3C(=CC[C@@H]2C1=O)C1(OCCCO1)[C@@H]1O[C@H]1[C@H]3O", "Potency": "inconclusive: 5.31 µM [activator, partial curve, poor fit]"}
{"smiles": "Cc1ccc(-c2nnc(SCC(=O)N3CCCC3)o2)cc1", "Potency": "inactive"}
{"smiles": "O=C(C1=C(O)CCCC1)N1CCOCC1", "Potency": "inactive"}
{"smiles": "Cc1[nH]nc2c1C(c1ccc(Cl)cc1)C(C#N)=C(N)O2", "note": "(configuration not stated)", "Potency": "inactive"}
{"smiles": "CN(C)c1ccc(N=C/C=C2\\N(C)c3ccccc3C2(C)C)cc1", "Potency": "inconclusive: 31.6 µM [inhibitor, single point]"}
{"smiles": "COc1ccc(NC(=O)CS(=O)CC(=O)Nc2ccc(OC)c(OC)c2)cc1", "note": "(configuration not stated)", "Potency": "inactive"}
{"smiles": "O=c1c2c(nc3cc(-c4cccc(F)c4)[nH]n13)CCC2", "Potency": "inconclusive: 4.47 µM [inhibitor, full curve, poor fit]"}
{"smiles": "COC(=O)c1cccc(NC(=O)CSc2nncn2-c2ccccn2)c1", "Potency": "inconclusive: 6.31 µM [inhibitor, single point]"}
{"smiles": "CCOc1ccccc1N(C(=O)c1snc(C(N)=O)c1N)C(C(=O)NC1CCCC1)c1cccs1", "note": "(configuration not stated)", "Potency": "inconclusive: 17.8 µM [inhibitor, single point]"}
{"smiles": "O=C(CO/N=C/c1ccc(OC(F)F)cc1)NCc1cccs1", "Potency": "inconclusive: 0.231 µM [inhibitor, single point]"}
{"smiles": "COc1cc(C(=O)NCc2ccc(-c3nc4ccccc4o3)cc2)cc(OC)c1OC", "Potency": "inconclusive: 2.82 µM [activator, full curve, poor fit]"}
{"smiles": "CCCC1(C(=O)OCC)NC(c2ccc(O)cc2)C2C(=O)N(c3cccc(C(C)=O)c3)C(=O)C21", "note": "(configuration not stated)", "Potency": "inconclusive: 6.31 µM [inhibitor, single point]"}
{"smiles": "Cc1ccc(Cl)c(OCC(=O)NC2CCN(Cc3ccccc3)CC2)c1", "Potency": "inconclusive: 17.8 µM [inhibitor, single point]"}
{"smiles": "CCN(C(=O)CN(C)Cc1c(F)cccc1Cl)c1c(N)n(Cc2ccccc2)c(=O)[nH]c1=O", "Potency": "inconclusive: 5.01 µM [inhibitor, full curve, poor fit]"}
{"smiles": "CN1CCc2cc(Cl)c(O)cc2C(c2ccccc2)C1", "note": "(configuration not stated)", "Potency": "inconclusive: 2.51 µM [inhibitor, partial curve]"}
{"smiles": "COc1cc2[nH]c(=O)n(Cc3ccc(C(=O)NCc4ccccc4)cc3)c(=O)c2cc1OC", "Potency": "inactive"}
{"smiles": "Cc1ccc(C)c(S(=O)(=O)Nc2nc3ccc(S(N)(=O)=O)cc3s2)c1", "Potency": "inconclusive: 8.91 µM [activator, partial curve, poor fit]"}
